Measured data: PubChem BioAssay AID686938 (Drosophila RNAi Screening Center, 2013)

- Aim: 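Fly genes required for calcium entry once internal stores are emptied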 (primary screen)
- Cell system: Drosophila S2R+ cells
- Knock-down reagent: long dsRNA against Drosophila genes, about 0.25 µg dsRNA per well, roughly 10,000 cells
- Duration: 5 days of knock-down before the calcium assay
- Treatment: thapsigargin (SERCA pump blocker) to empty calcium stores; entry signal taken 4 min after adding it
- Measurement: 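Per-well fluo-4 fluorescence in two replicates, unnormalised, measured in resting cells and 4 min after store depletion by the SERCA blocker thapsigargin; ratio of the two present in few wells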
- Direction: calcium entry signal: higher = stronger calcium signal after store depletion; entry to resting ratio: higher = more calcium entry relative to resting level; resting calcium signal: higher = higher resting calcium signal
- Hit rule: 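Hit if the duplicate-averaged plate z-score for entry over resting signal is under −3; wells with weak total dye signal (Fmax z < −2) or more than 5 off-targets removed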
- Meaning of the calls: active = strongly reduced calcium entry; inactive = no strong reduction
The screen tested about 23,000 reagents; below is an unselected part of those that have a named target and a result. Of all reagents, 75 (0.33%) were called active. 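Raw plate signals without normalisation; calls rest on plate z-scores that were not deposited; ratio present for only 364 wells.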 Unmarked entries are inactive. Not given: the dose of the treatment.

The opening 4 entries, ahead of the listing:
| Target gene | amplicon | calcium entry signal, replicate 1 (fluorescence units) | calcium entry signal, replicate 2 (fluorescence units) | entry to resting ratio | resting calcium signal, replicate 1 (fluorescence units) | resting calcium signal, replicate 2 (fluorescence units) |
| --- | --- | --- | --- | --- | --- | --- |
| CG14634 (GeneID 50366) | DRSC17944 | 4.81e7 | 4.90e7 | 2 | 2.38e7 | 2.11e7 |
| Tsp42Eo (GeneID 35625) | DRSC06184 | 2.76e7 | 4.16e7 | – | 1.35e7 | 1.71e7 |
| CG12402 (GeneID 41714) | DRSC14508 | 3.75e7 | 4.85e7 | – | 1.81e7 | 6.00e7 |
| Ns3 (GeneID 31097) | DRSC18607 | 2.63e7 | 2.79e7 | – | 1.19e7 | 1.44e7 |

The list itself, from the start:
| Target gene | amplicon | calcium entry signal, replicate 1 (fluorescence units) | calcium entry signal, replicate 2 (fluorescence units) | entry to resting ratio | resting calcium signal, replicate 1 (fluorescence units) | resting calcium signal, replicate 2 (fluorescence units) |
| --- | --- | --- | --- | --- | --- | --- |
| CG14634 (GeneID 50366) | DRSC17944 | 4.81e7 | 4.90e7 | 2 | 2.38e7 | 2.11e7 |
| Tsp42Eo (GeneID 35625) | DRSC06184 | 2.76e7 | 4.16e7 | – | 1.35e7 | 1.71e7 |
| CG12402 (GeneID 41714) | DRSC14508 | 3.75e7 | 4.85e7 | – | 1.81e7 | 6.00e7 |
| Ns3 (GeneID 31097) | DRSC18607 | 2.63e7 | 2.79e7 | – | 1.19e7 | 1.44e7 |
| mrt (GeneID 43291) | DRSC15484 | 3.81e7 | 6.30e7 | – | 2.02e7 | 2.53e7 |
| CG13743 (GeneID 35911) | DRSC05139 | 2.00e7 | 4.99e7 | – | 1.02e7 | 2.75e7 |
| CG13743 (GeneID 35911) | DRSC06414 | 3.67e7 | 3.75e7 | – | 2.01e7 | 1.80e7 |
| CG13743 (GeneID 35911) | DRSC22775 | 4.17e7 | 3.43e7 | – | 2.46e7 | 1.69e7 |
| CG43693 (GeneID 39231) | DRSC09086 | 3.64e7 | 4.72e7 | – | 1.96e7 | 2.17e7 |
| CG43693 (GeneID 39231) | DRSC10625 | 4.18e7 | 3.03e7 | – | 2.74e7 | 1.37e7 |
| Cenp-C (GeneID 41014) | DRSC14371 | 2.13e7 (active) | 2.79e7 | – | 1.39e7 | 1.84e7 |
| Golgin97 (GeneID 36492) | DRSC06895 | 2.50e7 | 2.62e7 | – | 1.12e7 | 1.26e7 |
| aln (GeneID 2768997) | DRSC08240 | 1.88e7 | 2.74e7 | – | 1.06e7 | 1.27e7 |
| CG15643 (GeneID 32489) | DRSC19679 | 2.97e7 | 3.71e7 | – | 1.56e7 | 1.71e7 |
| CG17544 (GeneID 35213) | DRSC02624 | 4.40e7 | – | – | 2.24e7 | – |
| Ttc7 (GeneID 48387) | DRSC04836 | 3.33e7 | – | – | 1.82e7 | – |
| COX8 (GeneID 40390) | DRSC11814 | 3.01e7 | 4.65e7 | – | 1.45e7 | 2.07e7 |
| CG13245 (GeneID 50456) | DRSC02243 | 4.26e7 | – | – | 2.16e7 | – |
| CG4596 (GeneID 41312) | DRSC15608 | 3.48e7 | 4.12e7 | – | 1.54e7 | 1.91e7 |
| Dpit47 (GeneID 35565) | DRSC04985 | 4.28e7 | 3.96e7 | – | 2.00e7 | 1.89e7 |
| Vps52 (GeneID 33774) | DRSC03050 | 2.09e7 | 2.18e7 | – | 1.17e7 | 1.11e7 |
| Mccc2 (GeneID 59261) | DRSC04987 | 3.62e7 | 5.20e7 | – | 1.99e7 | 2.40e7 |
| CAH8 (GeneID 42625) | DRSC15784 | 3.66e7 | 4.21e7 | – | 5.54e7 | 2.12e7 |
| angel (GeneID 37748) | DRSC04670 | 4.03e7 | – | – | 2.04e7 | – |
| angel (GeneID 37748) | DRSC21326 | 2.60e7 | 3.03e7 | – | 1.25e7 | 1.35e7 |
| BicD (GeneID 35051) | DRSC02006 | 4.41e7 | – | – | 2.20e7 | – |
| CG14079 (GeneID 40086) | DRSC10083 | 2.51e7 | 4.02e7 | – | 1.21e7 | 1.81e7 |
| Gbeta76C (GeneID 40148) | DRSC11174 | 2.67e7 | 3.76e7 | – | 1.25e7 | 2.12e7 |
| CG31997 (GeneID 319064) | DRSC17105 | 4.29e7 | 3.28e7 | – | 2.03e7 | 1.40e7 |
| NKAIN (GeneID 37979) | DRSC04531 | 2.83e7 | – | – | 1.45e7 | – |
| NKAIN (GeneID 37979) | DRSC22470 | 4.15e7 | 3.52e7 | – | 2.08e7 | 1.61e7 |
| Plap (GeneID 43978) | DRSC00678 | 3.87e7 | – | – | 2.43e7 | – |
| CG31174 (GeneID 318616) | DRSC13518 | 3.48e7 | 2.73e7 | – | 1.73e7 | 1.28e7 |
| Asciz (GeneID 38381) | DRSC08421 | 2.60e7 | 2.65e7 | – | 1.58e7 | 1.33e7 |
| RabGGTa (GeneID 40617) | DRSC12189 | 2.53e7 | 2.47e7 | – | 1.05e7 | 1.14e7 |
| kin17 (GeneID 40242) | DRSC11890 | 2.03e7 | 3.11e7 | – | 9.61e6 | 1.48e7 |
| Prosalpha4 (GeneID 32584) | DRSC20271 | 3.27e7 | 1.78e7 | – | 1.69e7 | 9.31e6 |
| mRpL41 (GeneID 36688) | DRSC06257 | 4.05e7 | 4.32e7 | – | 1.91e7 | 1.80e7 |
| l(3)80Fj (GeneID 3355040) | DRSC20986 | 3.12e7 | 3.27e7 | – | 1.57e7 | 1.55e7 |
| l(3)80Fj (GeneID 3355040) | DRSC20989 | 3.76e7 | 3.77e7 | – | 1.83e7 | 1.58e7 |
| Xrp1 (GeneID 42267) | DRSC15282 | 8.24e6 | 1.08e7 | – | 6.78e6 | 2.89e7 |
| Xrp1 (GeneID 42267) | DRSC15283 | 1.46e7 | 1.16e7 | – | 8.40e6 | 3.09e7 |
| CG4213 (GeneID 33209) | DRSC00641 | 4.20e7 | 4.38e7 | – | 2.06e7 | 1.88e7 |
| Ddc (GeneID 35190) | DRSC03314 | 4.99e7 | 6.12e7 | – | 2.30e7 | 2.41e7 |
| CG30183 (GeneID 37749) | DRSC04450 | 3.97e7 | 4.99e7 | – | 2.08e7 | 2.24e7 |
| CG30183 (GeneID 37749) | DRSC04472 | 4.10e7 | 4.55e7 | – | 2.16e7 | 2.03e7 |
| stwl (GeneID 39581) | DRSC11400 | 2.24e7 | 3.35e7 | – | 1.12e7 | 2.13e7 |
| trr (GeneID 31149) | DRSC18845 | 2.44e7 | 2.79e7 | – | 1.15e7 | 1.33e7 |
| trr (GeneID 31149) | DRSC23290 | 4.40e7 | 2.33e7 | – | 2.05e7 | 1.09e7 |
| mRpL51 (GeneID 34186) | DRSC02200 | 5.68e7 | – | – | 2.36e7 | – |
| Fmo-1 (GeneID 37814) | DRSC04328 | 3.43e7 | – | – | 1.62e7 | – |
| PRL-1 (GeneID 34952) | DRSC03393 | 4.46e7 | 3.70e7 | – | 2.12e7 | 1.80e7 |
| be (GeneID 32430) | DRSC19607 | 3.32e7 | 3.98e7 | – | 1.66e7 | 1.82e7 |
| be (GeneID 32430) | DRSC19944 | 4.15e7 | 2.84e7 | – | 2.20e7 | 1.41e7 |
| be (GeneID 32430) | DRSC19945 | 3.96e7 | 2.86e7 | – | 2.14e7 | 1.41e7 |
| CG11509 (retired record) (GeneID 31115) | DRSC17788 | 2.08e7 | 2.26e7 | – | 9.96e6 | 1.26e7 |
| swa (GeneID 31580) | DRSC18842 | 3.46e7 | 3.43e7 | – | 1.65e7 | 1.61e7 |
| Trf2 (GeneID 31773) | DRSC18727 | 1.93e7 | 2.57e7 | – | 1.17e7 | 1.50e7 |
